Results taken from the supplement of paper PMC6411743.
± gives the standard deviation of the averaged measurements. The list shows a part of the results.

Molecular target: T1, A0A087WTB8|P15374 (UniProt P15374)
T1 sequence (whole entry): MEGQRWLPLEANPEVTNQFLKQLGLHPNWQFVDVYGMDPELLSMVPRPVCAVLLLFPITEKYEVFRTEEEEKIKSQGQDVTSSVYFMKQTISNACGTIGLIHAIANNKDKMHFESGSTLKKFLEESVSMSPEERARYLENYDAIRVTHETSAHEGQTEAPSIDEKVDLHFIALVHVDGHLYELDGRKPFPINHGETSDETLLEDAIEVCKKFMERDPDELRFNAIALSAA
Assay: NP40-soluble protein abundance relative to vehicle (solubility fold change) (ratio); higher = more soluble protein in presence of GTP
Description: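 Solubility proteome profiling in Jurkat crude lysate. Lysate was treated with Mg-GTP (0.1-10 mM) for 10 min at room temperature and 3 min at 37 °C, then solubilised with 0.8% NP40 and benzonase, followed by ultracentrifugation. Proteins were quantified by TMT10 LC-MS/MS; the value is the NP40-soluble abundance relative to the NP40-processed vehicle, from 3 independent experiments.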

Work on `Nc1nc2c(ncn2[C@@H]2O[C@H](COP(=O)(O)OP(=O)(O)OP(=O)(O)O)[C@@H](O)[C@H]2O)c(=O)[nH]1` [guanosine triphosphate] yielded an NP40-soluble protein abundance (concentration: 0.1mM) of 0.961 ± 0.038, an NP40-soluble protein abundance (concentration: 0.5mM) of 0.96 ± 0.069 and an NP40-soluble protein abundance (concentration: 1mM) of 0.939 ± 0.044. The NP40-soluble protein abundance (concentration: 2mM) was 0.946 ± 0.075, the NP40-soluble protein abundance (concentration: 4mM) was 0.918 ± 0.064 and the NP40-soluble protein abundance (concentration: 6mM) was 0.927 ± 0.07. The NP40-soluble protein abundance (concentration: 8mM) was 0.899 ± 0.098 and the NP40-soluble protein abundance (concentration: 10mM) was 0.91 ± 0.079.
